Experimental data from patent publication US20250345464A1, “GENE THERAPY FOR TREATING NEURODEGENERATIVE DISEASES” (ABRAIN, priority 2021, published 2025).
Part of at least one peptide drawing is inferred or uncertain, most often the ends.

The chains behind the UniProt entries cited, without tags or fusion partners. Residues count along the entry.
UniProt P05067, 672-713: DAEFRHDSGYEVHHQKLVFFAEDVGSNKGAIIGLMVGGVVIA

What was measured:
[1] = molecular target: T1, Aβ42 WT (Homo sapiens, UniProt P05067); experiment: ThT competition assay, inhibition of Aβ42 WT aggregation; assay type: biochemical; conditions: variant mixed with Aβ42 WT 1:1, 10 μM each
T1 construct: Synthetic Aβ42 WT or variant peptides were purchased from Biomatik; purchased Biomatik; host or cells: chemical synthesis

[2] = molecular target: T2, WT Aβ42 fibrils (Homo sapiens, UniProt P05067); experiment: ThT assay, disassembly of WT Aβ42 fibrils; assay type: biochemical; conditions: 10 μM Aβ42 WT with 5, 10 and 20 μM variant peptide, 40 hours at 37° C.
T2 construct: Synthetic Aβ42 WT or variant peptides were purchased from Biomatik; purchased Biomatik; host or cells: chemical synthesis

SMILES: CC[C@H](C)[C@H](NC(=O)[C@H](C)NC(=O)CNC(=O)[C@H](CCCCN)NC(=O)[C@H](CC(N)=O)NC(=O)[C@H](CO)NC(=O)CNC(=O)[C@@H](NC(=O)[C@H](CC(=O)O)NC(=O)[C@H](CCC(=O)O)NC(=O)[C@H](CC(=O)O)NC(=O)[C@H](Cc1ccccc1)NC(=O)[C@H](CC(=O)O)NC(=O)[C@@H]1CCCN1C(=O)[C@H](CC(C)C)NC(=O)[C@H](CCCCN)NC(=O)[C@H](CCC(N)=O)NC(=O)[C@H](Cc1c[nH]cn1)NC(=O)[C@H](Cc1c[nH]cn1)NC(=O)[C@@H](NC(=O)[C@H](CCC(=O)O)NC(=O)[C@H](Cc1ccc(O)cc1)NC(=O)CNC(=O)[C@H](CO)NC(=O)[C@H](CC(=O)O)NC(=O)[C@H](Cc1c[nH]cn1)NC(=O)[C@H](CCCNC(=N)N)NC(=O)[C@H](Cc1ccccc1)NC(=O)[C@H](CCC(=O)O)NC(=O)[C@H](C)NC(=O)[C@@H](N)CC(=O)O)C(C)C)C(C)C)C(=O)N[C@H](C(=O)NCC(=O)N[C@@H](CC(C)C)C(=O)N[C@@H](CCSC)C(=O)N[C@H](C(=O)NCC(=O)NCC(=O)N[C@H](C(=O)N[C@H](C(=O)N[C@H](C(=O)N[C@@H](C)C(=O)O)[C@@H](C)CC)C(C)C)C(C)C)C(C)C)[C@@H](C)CC [V18P/F19D/A21D, Aβ(V18P/F19D/A21D)]
- inhibition of Aβ42 WT aggregation (fibrillization) [1]: completely attenuated the aggregation of the Aβ42 WT peptide
- change in ThT fluorescence of WT Aβ42 fibrils (disassembly) [2]: concentration-dependent reduction in ThT fluorescence
